Source: PubChem BioAssay AID1347076 (National Center for Advancing Translational Sciences (NCATS), 2019)
Hit rate of the full screen: of about 400,000 compounds, about 13,000 (3.2%) were called active. Inconclusive results, whose numbers are uncertain, are shown with a selection of clear calls. Calls follow the shape of the dose curve; as a rule, active = well fitted cell-killing curve with a large enough effect; inconclusive = small, poorly fitted or top-dose-only effect, or effect the other way; inactive = flat fitted curve, though single readings scatter. Where the call is inconclusive, the potency comes from a doubtful curve fit.

test: qHTS assay for MDR1-selective chemotherapeutics: Primary screen using the drug-selected MDR subline cells KB-V1; conditions: KB-V1 MDR cells viability, CellTiter-Glo, 72 h; series mostly up to 46.1 µM; also: nearly all actives have a fitted effect of over 60% in size
Summary of the method: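 Readout: CellTiter-Glo luminescence, 10 min after addition. Cells: KB-V1 MDR subline, 72 h at 37 degrees C with compound. Analysis: corrected, normalized data fitted to concentration-effect curves.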
Potency is read from the fitted curve at half-maximal effect.

Row | SMILES | Potency
1 | COCCn1c(C)cc(C(=O)CSc2nc3ccccc3s2)c1C | inconclusive: 6.51 µM [cytotoxic, partial curve]
2 | O=C(CCc1nc2ccccc2c(=O)[nH]1)Nc1cc(Cl)ccc1N1CCCCC1 | inconclusive: 18.4 µM [cytotoxic, single point]
3 | CCN(CC)c1ccc(/C=N\NC(N)=O)cc1 | inconclusive: 18.4 µM [cytotoxic, single point]
4 | CCN(CC)S(=O)(=O)c1ccc2c(c1)N(CC(=O)NCC1CCCO1)C(=O)CO2 (configuration not stated) | inconclusive: 2.59 µM [rising, full curve, poor fit]
5 | O=C(Nc1ccc(Cl)cc1)Nc1csc([N+](=O)[O-])c1 | inconclusive: 29.1 µM [cytotoxic, single point]
6 | COc1ccc(CN2C(=O)N(c3ccc(F)cc3)C(=O)C2CC(=O)Nc2ccccc2)cc1 (configuration not stated) | inactive
7 | CCn1c(=O)cc(OCC(=O)NCc2ccc(F)cc2Cl)c2ccccc21 | inconclusive: 16.4 µM [cytotoxic, single point]
8 | CCC(c1nnnn1-c1c(C)cccc1C)N1CCN(C/C=C/c2ccccc2)CC1 (configuration not stated) | inconclusive: 29.1 µM [cytotoxic, single point]
9 | CCCNC(=O)C1CCN(c2cc(C)nc3c(-c4ccc(OC)c(OC)c4)c(C)nn23)CC1 | inconclusive: 18.4 µM [rising, single point]
10 | O=S(=O)(c1ccc(F)cc1)c1nc(-c2ccccc2F)oc1N1CCCCC1 | active: 3.66 µM
11 | CCOC(=O)c1ccc(N2C(=O)c3[nH]nc(-c4ccc(OC)cc4)c3C2c2ccc(C)cc2)cc1 (configuration not stated) | active: 18.4 µM
12 | CC(=O)OC(C(=O)NC1CCCCC1)c1ccc(Cl)c(Cl)c1 (configuration not stated) | inconclusive: 8.2 µM [cytotoxic, partial curve, poor fit]
13 | C/C(CC(=O)Nc1ccccn1)=N\NC(=O)c1cnccn1 | inconclusive: 32.6 µM [rising, single point]
14 | CCc1cccc(C)c1NC(=O)Nc1csc2c1CCCC2 | inactive
15 | COc1ccc(C(C)=O)cc1Cn1c(C)c(C(=O)NCc2ccc(C(C)C)cc2)sc1=O | inconclusive: 9.2 µM [cytotoxic, partial curve]
16 | COc1ccc(NC(=O)CN(C)C(=O)c2cc3c(s2)CCCCC3)cc1 | inconclusive: 20.6 µM [cytotoxic, single point]
17 | Cc1ccc(S(=O)(=O)N2CCOCC2)cc1NC(=O)COC(=O)c1ccc(Cl)s1 | inactive
18 | Cn1nc(CC(=O)Nc2cccc3ncccc23)c2ccccc2c1=O | inconclusive: 9.2 µM [cytotoxic, partial curve, poor fit]
19 | O=C(C1CCCO1)N1CCN(C(=S)Nc2ccc(Cl)cc2)CC1 (configuration not stated) | inconclusive: 25.9 µM [cytotoxic, partial curve, poor fit]
20 | COc1ccc(OC)c(/C=C/C(=O)N2CCN(S(=O)(=O)c3ccc(C)cc3C)CC2)c1 | active: 3.66 µM
21 | CC1(C(=O)O)CCCN1C(=O)c1cccc(C(F)(F)F)c1 (configuration not stated) | inactive
22 | Cc1cc(C)n(-c2nc3c(c(=O)[nH]c(=O)n3C)n2CC(O)COc2ccccc2C)n1 (configuration not stated) | inconclusive: 20.6 µM [cytotoxic, single point]
23 | CNC(=O)NC(=O)CSc1nc2cc(C(=O)OC)ccc2c(=O)n1-c1ccccc1 | inactive
24 | O=C(NCCc1c[nH]c2ccccc12)Nc1ccccc1C(F)(F)F | inconclusive: 20.6 µM [rising, single point]

Ordered by molar mass (low to high): some entries from above
Row | SMILES | Potency
13 | C/C(CC(=O)Nc1ccccn1)=N\NC(=O)c1cnccn1 | inconclusive: 32.6 µM [rising, single point]
7 | CCn1c(=O)cc(OCC(=O)NCc2ccc(F)cc2Cl)c2ccccc21 | inconclusive: 16.4 µM [cytotoxic, single point]
2 | O=C(CCc1nc2ccccc2c(=O)[nH]1)Nc1cc(Cl)ccc1N1CCCCC1 | inconclusive: 18.4 µM [cytotoxic, single point]

(more compounds)

Row | SMILES | Potency
25 | Cc1ccccc1N1CCN(CC(=O)NCc2ccc(Cl)cc2)CC1 | inactive
26 | Cc1ccc(NC(=O)Cn2cc(C(F)(F)F)cc(Cl)c2=O)cc1S(=O)(=O)N1CCCCC1 | inactive
27 | O=C(CSc1nc2ccccc2[nH]1)c1ccc2c(c1)OCO2 | active: 18.4 µM
28 | COc1cccc2sc(N(CCCN(C)C)C(=O)c3ccc(S(=O)(=O)N4CCCc5ccccc54)cc3)nc12 | inconclusive: 25.9 µM [cytotoxic, single point]
29 | CCCCOc1cccc(NC(=O)CSc2nncn2C)c1 | inconclusive: 9.2 µM [cytotoxic, partial curve]
30 | CC(C)c1ccc(NC(=O)C2CCCN(S(=O)(=O)c3cccnc3)C2)cc1 (configuration not stated) | inconclusive: 18.4 µM [cytotoxic, single point]
31 | O=C(COc1ccc(Cl)cc1Br)N1CCN(S(=O)(=O)c2ccccc2)CC1 | inconclusive: 29.1 µM [cytotoxic, single point]
32 | CCOc1cccc(-c2cc(-c3n[nH]c(=S)n3CC)c3ccccc3n2)c1 | active: 9.2 µM
33 | COC(=O)Cc1ccc(NC(=S)N2CCN(C)CC2)cc1 | inconclusive: 29.1 µM [rising, single point]
34 | CCCCOC(=O)c1[nH]c(C)c(C(=O)OC)c1C | inconclusive: 20.6 µM [cytotoxic, partial curve, poor fit]
35 | COC(=O)c1ccccc1NC(=O)CN1C(=O)COc2ccccc21 | inconclusive: 16.4 µM [cytotoxic, single point]
36 | O=C(c1ccc(Cl)s1)N1CCc2ccccc21 | inconclusive: 29.1 µM [cytotoxic, single point]
37 | CC(C)c1ccc(NC(=O)CSc2nnc(-c3ccccc3)n2C)cc1 | inactive
38 | C/C(=N/NC(=O)c1cccs1)c1c(C)[nH]n(-c2nc3ccccc3s2)c1=O | inactive
39 | Cc1ccc(-c2nc3ccc(Cl)cn3c2CC2CCCCC2)cc1 | inconclusive: 2.31 µM [rising, partial curve, poor fit]
40 | CC(C1CC1)N(C(=O)c1ccccc1[N+](=O)[O-])c1ccccc1 (configuration not stated) | inactive
41 | O=C(CCN1CCN(C/C=C/c2ccccc2)CC1)Nc1ccccc1 | inconclusive: 16.4 µM [cytotoxic, single point]
42 | CCOc1cc(C(=O)NCCc2ccc(S(N)(=O)=O)cc2)cc(OCC)c1OCC | inconclusive: 23.1 µM [rising, single point]
43 | COc1cc(NC(=O)C2CC(c3cccc(Br)c3)=NO2)cc(OC)c1OC (configuration not stated) | inconclusive: 9.2 µM [cytotoxic, partial curve]
44 | Cc1ccc(Nc2cc(Cl)nc(N)n2)c([N+](=O)[O-])c1 | inactive
45 | COc1ccc(NC(=O)CSc2nc3c(c(=O)[nH]2)CN(Cc2ccccc2)CC3)cc1Cl | inconclusive: 29.1 µM [rising, single point]
46 | CC1CC(C)CN(C(=O)C2CCN(C(=O)Nc3ccccc3)CC2)C1 (configuration not stated) | active: 20.6 µM
47 | CCOC(=O)Nc1cccc(OCC(=O)Nc2ccccc2OC)c1 | active: 20.6 µM
48 | O=C(c1cc(-c2ccccc2O)on1)N1CCCCCC1 | inactive

Row | SMILES | Potency
49 | C=CCOC(=O)Nc1nc(CCNC(=O)OC(C)(C)C)c(C(=O)OC)s1 | inconclusive: 20.6 µM [cytotoxic, single point]
50 | Cc1ccc(S(=O)(=O)c2cn(C)c3cc(N4CCCC4)c(F)cc3c2=O)c(C)c1 | inactive
51 | COc1ccccc1N1CCN(C(=O)C(NS(=O)(=O)c2cccs2)c2ccccc2)CC1 (configuration not stated) | active: 4.61 µM
52 | O=C1C=C(Nc2ccc(Cl)cc2Cl)CC(c2ccco2)C1 (configuration not stated) | active: 7.31 µM
53 | CCOc1ccc(N/C(C)=C\C(=O)c2ccc3c(c2)OCCO3)cc1 | inactive
54 | Cc1ccc(S(=O)(=O)N2CCN(Cc3nc4ccccc4n3C)CC2)cc1 | inconclusive: 13 µM [cytotoxic, partial curve, poor fit]
55 | CC(C)Nc1cc(C(C)(C)C)nc2c(-c3ccccc3)cnn12 | inactive
56 | COc1cccc(CSc2nnc(CSc3nc4nc(C)cc(C)n4n3)s2)c1 | inconclusive: 25.9 µM [cytotoxic, partial curve, poor fit]
57 | C=CCNc1nc(N(c2ccccc2)c2ccccc2)nc(-n2ccnc2)n1 | inconclusive: 5.01 µM [cytotoxic, partial curve, poor fit]
58 | CCN(CC)C(=O)Oc1cc(=O)n2c3c(cccc13)CCC2 | active: 16.4 µM
59 | Cc1cccc2nc(CSc3ccccc3N)cn12 | inactive
60 | CCCC[C@@H]1CC2=C(C(=O)OC(C)(C)O2)[C@@H](c2ccc(F)cc2)O1 | inactive
61 | CCc1ccc(NC(=O)c2cnn(-c3c(C)cccc3C)c2C2CCNCC2)cc1 | inactive
62 | CCc1nnc(NC(=O)C(c2ccccc2)c2ccccc2)s1 | inconclusive: 6.51 µM [cytotoxic, partial curve, poor fit]
63 | COc1cccc(C2Nc3cc(Cl)c(S(N)(=O)=O)cc3S(=O)(=O)N2)c1 (configuration not stated) | inactive
64 | CCCN1C2=NCCCN2c2ccccc21 | inactive
65 | COc1ccc(C(=O)NCc2nnc(SCC(=O)NCc3ccco3)o2)cc1OC | inactive
66 | COc1ccccc1C1CCN(c2ccc([N+](=O)[O-])cn2)CC1 | inconclusive: 29.1 µM [cytotoxic, single point]
67 | Cc1cc(C)c(C#N)c(SCC(=O)Nc2ccccc2C#N)n1 | inconclusive: 13 µM [cytotoxic, single point]
68 | CC(C)S(=O)(=O)c1csc(NC(=O)Nc2cccc([N+](=O)[O-])c2)c1Cl | inconclusive: 16.4 µM [cytotoxic, single point]
69 | Fc1ccc(C2c3[nH]c4ccccc4c3CCN2Cc2cccn2-c2ncccn2)cc1 (configuration not stated) | inconclusive: 29.1 µM [cytotoxic, single point]
70 | COC(=O)C(=C/C(C)=C/c1cccnc1)C(=O)OC | inconclusive: 29.1 µM [cytotoxic, single point]
71 | Cc1ccc(N2CCN(C(=O)CCc3c(C)nc4ncnn4c3C)CC2)c(C)c1 | inconclusive: 20.6 µM [cytotoxic, single point]
72 | COc1ccc(CNC(=O)CN(C(=O)CCC(=O)Nc2nccs2)c2ccccc2C)cc1 | inactive

Filtered by structure: the entries above containing a CF3 group (3)
Row | SMILES | Potency
21 | CC1(C(=O)O)CCCN1C(=O)c1cccc(C(F)(F)F)c1 (configuration not stated) | inactive
24 | O=C(NCCc1c[nH]c2ccccc12)Nc1ccccc1C(F)(F)F | inconclusive: 20.6 µM [rising, single point]
26 | Cc1ccc(NC(=O)Cn2cc(C(F)(F)F)cc(Cl)c2=O)cc1S(=O)(=O)N1CCCCC1 | inactive
